In the supplement of paper PMC10849652:
Some of the results follow.

The chains behind the UniProt entries cited, without tags or fusion partners. Where a name states a change or a piece, a line headed by the entry shows the natural chain unless it says otherwise.
UniProt P40121: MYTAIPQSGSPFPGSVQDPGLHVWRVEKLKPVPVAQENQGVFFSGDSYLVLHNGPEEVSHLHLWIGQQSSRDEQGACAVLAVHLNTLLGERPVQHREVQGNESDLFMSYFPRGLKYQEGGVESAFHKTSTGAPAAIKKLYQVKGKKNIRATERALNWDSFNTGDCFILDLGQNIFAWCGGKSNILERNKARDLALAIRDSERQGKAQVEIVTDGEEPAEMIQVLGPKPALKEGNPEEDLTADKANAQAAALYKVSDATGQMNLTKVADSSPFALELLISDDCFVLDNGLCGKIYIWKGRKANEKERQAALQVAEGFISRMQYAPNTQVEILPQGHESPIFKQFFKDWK
UniProt Q9UFG5: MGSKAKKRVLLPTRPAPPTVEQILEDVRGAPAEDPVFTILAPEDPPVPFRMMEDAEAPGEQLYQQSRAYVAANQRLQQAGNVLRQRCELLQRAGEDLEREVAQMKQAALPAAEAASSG
UniProt P47756, whole entry, looked up: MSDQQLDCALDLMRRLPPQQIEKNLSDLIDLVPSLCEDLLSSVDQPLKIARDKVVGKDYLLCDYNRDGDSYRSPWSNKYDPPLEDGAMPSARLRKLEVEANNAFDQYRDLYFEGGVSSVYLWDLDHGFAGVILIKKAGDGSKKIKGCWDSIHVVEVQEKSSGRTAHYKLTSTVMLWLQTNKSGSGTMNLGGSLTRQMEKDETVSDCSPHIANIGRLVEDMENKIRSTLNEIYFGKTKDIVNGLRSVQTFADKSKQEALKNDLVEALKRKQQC
UniProt O43852: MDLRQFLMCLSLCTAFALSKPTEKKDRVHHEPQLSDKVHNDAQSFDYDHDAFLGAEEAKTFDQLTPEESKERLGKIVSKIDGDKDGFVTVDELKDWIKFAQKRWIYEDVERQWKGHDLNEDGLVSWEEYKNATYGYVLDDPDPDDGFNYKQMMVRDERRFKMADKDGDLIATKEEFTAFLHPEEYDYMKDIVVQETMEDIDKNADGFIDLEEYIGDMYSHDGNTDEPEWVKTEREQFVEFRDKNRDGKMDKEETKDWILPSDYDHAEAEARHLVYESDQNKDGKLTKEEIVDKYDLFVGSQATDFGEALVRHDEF
UniProt Q96B23: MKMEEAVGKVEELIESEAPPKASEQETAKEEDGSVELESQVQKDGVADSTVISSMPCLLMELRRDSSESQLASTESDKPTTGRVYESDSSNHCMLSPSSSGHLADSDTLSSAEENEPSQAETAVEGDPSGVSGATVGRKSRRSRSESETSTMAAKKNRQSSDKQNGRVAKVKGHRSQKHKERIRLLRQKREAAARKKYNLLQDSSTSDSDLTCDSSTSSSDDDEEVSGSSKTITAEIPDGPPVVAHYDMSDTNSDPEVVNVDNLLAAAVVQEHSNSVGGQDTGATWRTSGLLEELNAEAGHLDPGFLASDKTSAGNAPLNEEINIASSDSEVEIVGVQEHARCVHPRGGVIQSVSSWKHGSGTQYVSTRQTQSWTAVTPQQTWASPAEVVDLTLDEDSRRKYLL
UniProt Q9BV19: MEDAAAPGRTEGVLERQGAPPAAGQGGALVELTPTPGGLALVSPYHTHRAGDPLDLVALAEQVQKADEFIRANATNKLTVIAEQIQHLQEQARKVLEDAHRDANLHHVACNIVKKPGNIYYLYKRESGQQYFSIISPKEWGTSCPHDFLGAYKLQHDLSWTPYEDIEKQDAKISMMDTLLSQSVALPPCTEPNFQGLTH
UniProt Q14444, whole entry, looked up: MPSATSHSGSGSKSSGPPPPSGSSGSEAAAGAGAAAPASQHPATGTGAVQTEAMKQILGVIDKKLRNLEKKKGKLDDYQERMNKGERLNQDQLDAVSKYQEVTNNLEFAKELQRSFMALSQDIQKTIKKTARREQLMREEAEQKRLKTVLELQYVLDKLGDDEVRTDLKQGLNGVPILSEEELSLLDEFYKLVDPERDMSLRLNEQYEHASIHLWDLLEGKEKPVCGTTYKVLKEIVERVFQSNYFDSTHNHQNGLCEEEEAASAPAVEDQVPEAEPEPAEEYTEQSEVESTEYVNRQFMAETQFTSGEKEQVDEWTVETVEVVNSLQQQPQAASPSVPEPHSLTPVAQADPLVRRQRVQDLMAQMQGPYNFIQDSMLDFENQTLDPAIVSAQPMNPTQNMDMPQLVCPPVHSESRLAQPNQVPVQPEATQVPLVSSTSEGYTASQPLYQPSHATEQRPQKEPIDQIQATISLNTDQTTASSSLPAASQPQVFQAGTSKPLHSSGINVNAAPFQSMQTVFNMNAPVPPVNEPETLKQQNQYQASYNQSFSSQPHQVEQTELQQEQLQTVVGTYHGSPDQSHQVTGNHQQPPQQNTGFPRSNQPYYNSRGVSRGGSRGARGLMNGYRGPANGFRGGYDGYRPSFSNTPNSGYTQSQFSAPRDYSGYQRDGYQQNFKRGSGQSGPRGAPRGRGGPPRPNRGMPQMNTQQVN
UniProt P04632: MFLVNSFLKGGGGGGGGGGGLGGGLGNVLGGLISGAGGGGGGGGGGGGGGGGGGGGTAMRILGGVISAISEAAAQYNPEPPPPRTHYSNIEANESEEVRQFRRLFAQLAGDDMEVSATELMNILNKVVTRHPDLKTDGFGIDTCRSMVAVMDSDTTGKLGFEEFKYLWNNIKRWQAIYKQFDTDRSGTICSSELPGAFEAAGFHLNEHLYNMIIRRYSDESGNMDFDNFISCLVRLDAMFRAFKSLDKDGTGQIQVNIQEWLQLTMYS
UniProt Q9H0W9: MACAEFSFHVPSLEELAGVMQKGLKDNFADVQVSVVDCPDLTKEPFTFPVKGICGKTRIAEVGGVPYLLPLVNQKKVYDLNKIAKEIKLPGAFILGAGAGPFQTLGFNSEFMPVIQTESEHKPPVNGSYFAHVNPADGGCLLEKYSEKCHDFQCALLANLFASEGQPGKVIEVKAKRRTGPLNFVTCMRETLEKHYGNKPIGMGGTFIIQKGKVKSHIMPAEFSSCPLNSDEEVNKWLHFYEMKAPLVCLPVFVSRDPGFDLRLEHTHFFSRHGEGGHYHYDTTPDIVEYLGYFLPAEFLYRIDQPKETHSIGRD
UniProt Q9NX04: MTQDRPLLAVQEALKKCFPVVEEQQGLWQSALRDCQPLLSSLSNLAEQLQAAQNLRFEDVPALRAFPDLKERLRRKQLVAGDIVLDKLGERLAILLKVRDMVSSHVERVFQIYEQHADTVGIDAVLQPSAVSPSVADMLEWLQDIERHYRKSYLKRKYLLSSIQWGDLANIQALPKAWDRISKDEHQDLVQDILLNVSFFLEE
UniProt Q8WVQ1: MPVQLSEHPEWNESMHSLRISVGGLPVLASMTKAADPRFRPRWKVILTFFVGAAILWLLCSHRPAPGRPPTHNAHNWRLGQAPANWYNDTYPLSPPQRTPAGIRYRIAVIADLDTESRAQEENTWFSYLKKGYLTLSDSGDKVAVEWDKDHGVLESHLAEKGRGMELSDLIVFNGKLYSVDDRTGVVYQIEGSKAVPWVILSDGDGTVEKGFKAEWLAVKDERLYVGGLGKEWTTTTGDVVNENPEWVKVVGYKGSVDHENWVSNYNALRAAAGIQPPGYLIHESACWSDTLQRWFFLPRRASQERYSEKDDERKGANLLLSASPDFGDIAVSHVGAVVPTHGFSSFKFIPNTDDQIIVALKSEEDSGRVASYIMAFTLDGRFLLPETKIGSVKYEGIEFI
UniProt Q5JPI3: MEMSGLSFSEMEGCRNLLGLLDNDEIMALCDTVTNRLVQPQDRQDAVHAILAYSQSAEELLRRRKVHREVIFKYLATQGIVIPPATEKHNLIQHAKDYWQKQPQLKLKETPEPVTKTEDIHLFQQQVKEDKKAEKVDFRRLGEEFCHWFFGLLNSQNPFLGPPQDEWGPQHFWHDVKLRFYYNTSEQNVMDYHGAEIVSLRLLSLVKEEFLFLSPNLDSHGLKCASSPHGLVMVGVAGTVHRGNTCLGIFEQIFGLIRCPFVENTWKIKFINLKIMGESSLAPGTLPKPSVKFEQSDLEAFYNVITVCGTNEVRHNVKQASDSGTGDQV
UniProt Q8N8R5: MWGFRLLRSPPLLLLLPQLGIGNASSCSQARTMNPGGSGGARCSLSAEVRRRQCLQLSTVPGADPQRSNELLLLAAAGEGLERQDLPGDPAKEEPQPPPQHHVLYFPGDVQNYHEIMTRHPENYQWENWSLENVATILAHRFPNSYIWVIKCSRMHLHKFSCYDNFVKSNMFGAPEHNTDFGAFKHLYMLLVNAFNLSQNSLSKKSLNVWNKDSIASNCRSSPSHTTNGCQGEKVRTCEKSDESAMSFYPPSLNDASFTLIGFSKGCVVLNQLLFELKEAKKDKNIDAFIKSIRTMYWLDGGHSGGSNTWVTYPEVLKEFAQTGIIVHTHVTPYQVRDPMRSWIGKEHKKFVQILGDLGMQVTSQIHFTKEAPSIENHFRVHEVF
UniProt Q49AR2: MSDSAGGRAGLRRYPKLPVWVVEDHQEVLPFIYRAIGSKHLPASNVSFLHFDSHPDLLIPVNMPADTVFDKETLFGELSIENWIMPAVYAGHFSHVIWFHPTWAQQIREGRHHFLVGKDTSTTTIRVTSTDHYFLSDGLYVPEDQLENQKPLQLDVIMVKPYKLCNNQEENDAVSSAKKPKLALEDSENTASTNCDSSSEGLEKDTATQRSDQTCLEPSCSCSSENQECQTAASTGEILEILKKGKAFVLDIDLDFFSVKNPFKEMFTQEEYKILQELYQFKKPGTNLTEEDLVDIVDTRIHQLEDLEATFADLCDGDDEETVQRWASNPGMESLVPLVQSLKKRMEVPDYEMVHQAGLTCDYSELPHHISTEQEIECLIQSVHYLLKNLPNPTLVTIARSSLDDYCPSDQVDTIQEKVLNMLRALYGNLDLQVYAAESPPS
UniProt Q8NDD1: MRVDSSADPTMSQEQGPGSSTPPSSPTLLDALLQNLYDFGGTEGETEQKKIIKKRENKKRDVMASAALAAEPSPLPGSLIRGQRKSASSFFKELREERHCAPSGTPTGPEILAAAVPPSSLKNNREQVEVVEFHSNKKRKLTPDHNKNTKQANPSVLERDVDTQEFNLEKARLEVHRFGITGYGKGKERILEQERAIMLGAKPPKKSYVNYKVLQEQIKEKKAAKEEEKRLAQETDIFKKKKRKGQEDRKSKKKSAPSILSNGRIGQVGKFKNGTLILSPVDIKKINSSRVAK
UniProt Q06187: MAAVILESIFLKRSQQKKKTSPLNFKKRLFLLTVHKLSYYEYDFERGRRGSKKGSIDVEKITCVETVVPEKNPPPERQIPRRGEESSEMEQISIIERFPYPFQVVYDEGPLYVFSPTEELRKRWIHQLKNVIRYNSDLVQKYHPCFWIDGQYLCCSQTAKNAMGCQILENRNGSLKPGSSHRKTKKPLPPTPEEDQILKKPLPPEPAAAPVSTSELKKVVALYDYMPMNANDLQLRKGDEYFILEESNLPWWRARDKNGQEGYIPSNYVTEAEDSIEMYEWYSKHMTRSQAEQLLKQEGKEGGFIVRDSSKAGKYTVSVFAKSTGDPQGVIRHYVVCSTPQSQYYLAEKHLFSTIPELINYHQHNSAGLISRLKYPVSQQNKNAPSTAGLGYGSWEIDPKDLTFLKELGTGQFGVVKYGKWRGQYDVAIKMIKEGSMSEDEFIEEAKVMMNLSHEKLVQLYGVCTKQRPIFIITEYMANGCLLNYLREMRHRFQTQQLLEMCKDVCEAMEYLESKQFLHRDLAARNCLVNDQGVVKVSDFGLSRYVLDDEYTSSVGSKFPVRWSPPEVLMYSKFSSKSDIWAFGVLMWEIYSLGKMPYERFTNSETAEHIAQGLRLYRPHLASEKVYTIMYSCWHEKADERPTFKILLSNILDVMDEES
UniProt P10643, whole entry, looked up: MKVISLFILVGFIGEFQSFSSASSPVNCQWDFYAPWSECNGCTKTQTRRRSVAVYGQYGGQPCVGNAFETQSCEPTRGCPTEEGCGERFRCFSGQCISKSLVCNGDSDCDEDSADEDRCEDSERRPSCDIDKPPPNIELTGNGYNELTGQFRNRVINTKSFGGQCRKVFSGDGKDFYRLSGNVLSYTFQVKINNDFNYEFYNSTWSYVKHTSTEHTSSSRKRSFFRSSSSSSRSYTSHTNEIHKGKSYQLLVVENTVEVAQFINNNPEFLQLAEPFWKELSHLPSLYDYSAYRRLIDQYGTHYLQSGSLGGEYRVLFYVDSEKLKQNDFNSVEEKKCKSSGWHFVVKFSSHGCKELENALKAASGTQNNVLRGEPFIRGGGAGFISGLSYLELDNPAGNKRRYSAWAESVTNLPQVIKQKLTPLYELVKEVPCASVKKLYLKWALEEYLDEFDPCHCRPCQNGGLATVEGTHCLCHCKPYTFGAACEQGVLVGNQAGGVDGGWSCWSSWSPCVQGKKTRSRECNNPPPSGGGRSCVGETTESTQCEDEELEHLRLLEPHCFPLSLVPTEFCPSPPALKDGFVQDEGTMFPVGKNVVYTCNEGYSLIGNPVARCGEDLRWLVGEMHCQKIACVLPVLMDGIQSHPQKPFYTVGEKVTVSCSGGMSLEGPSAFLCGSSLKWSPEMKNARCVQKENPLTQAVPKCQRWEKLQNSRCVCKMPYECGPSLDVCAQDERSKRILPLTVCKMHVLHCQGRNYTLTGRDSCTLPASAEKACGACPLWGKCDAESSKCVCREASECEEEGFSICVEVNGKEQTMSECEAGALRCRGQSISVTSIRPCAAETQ

Experiments:
Test in all cases: log2 fold change, soluble protein after heating vs DMSO (PISA); higher = thermal stabilisation; K562 cells, 10 uM, 30 min; active = over 0.2 and 3.5 SD of the protein, either way, in both replicates (recomputed)
saracatinib = compound: CN1CCN(CCOc2cc(OC3CCOCC3)c3c(Nc4c(Cl)ccc5c4OCO5)ncnc3c2)CC1 [saracatinib]
Outline: (§1)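 K562 cells at 2×10^6 cells/mL were exposed to 10 μM compound for 30 min, then aliquots were heated for 3 min across 48°C-58°C, pooled, and extracted in PBS containing 0.5% NP-40 at 4°C. The supernatant after 21,000xg for 90 min was taken as soluble protein and measured by TMTpro 16plex LC-MS/MS with channel sums equalised. Thermal stability is reported relative to control samples, with values from duplicates. Fold changes are given on a log2 scale.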

sotrastaurin = compound: CN1CCN(c2nc(C3=C(c4c[nH]c5ccccc45)C(=O)NC3=O)c3ccccc3n2)CC1 [sotrastaurin]
Outline: as §1

alvocidib = compound: CN1CC[C@H](c2c(O)cc(O)c3c(=O)cc(-c4ccccc4Cl)oc23)[C@H](O)C1 [alvocidib]
Outline: as §1

Tubastatin A = compound: CN1CCc2c(c3ccccc3n2Cc2ccc(C(=O)NO)cc2)C1 [Tubastatin A]
Outline: as §1

[1] = compound: CNC(=O)C1=CC=CC=C1NC2=NC(=NC=C2Cl)NC3=C(C=C(C=C3)N4CCOCC4)OC
Outline: as §1

defactinib = compound: CNC(=O)c1ccc(Nc2ncc(C(F)(F)F)c(NCc3nccnc3N(C)S(C)(=O)=O)n2)cc1 [defactinib]
Outline: as §1

rucaparib = compound: CNCc1ccc(-c2[nH]c3cc(F)cc4c3c2CCNC4=O)cc1 [rucaparib]
Outline: as §1

[2] = compound: CNc1nc(-c2ccc3c(N)n[nH]c3c2)cc(N2C[C@@H](C(=O)NC3CCCCC3)CC[C@H]2C)n1
Outline: as §1

encorafenib = compound: COC(=O)N[C@@H](C)CNc1nccc(-c2cn(C(C)C)nc2-c2cc(Cl)cc(NS(C)(=O)=O)c2F)n1 [encorafenib]
Outline: as §1

[3] = compound: COC(=O)[C@H](CCSC)NC(=O)C1=C(C=C(C=C1)NC[C@H](CS)N)C2=CC=CC=C2
Outline: as §1

Measured: log2 fold change

CAPG (UniProt P40121)
inactive: saracatinib 0.033 | sotrastaurin -0.058 | alvocidib -0.034 | Tubastatin A -0.003 | [1] 0.033 | defactinib -0.09 | rucaparib -0.045 | [2] -0.02 | encorafenib -0.01 | [3] -0.003

C3 (UniProt P01024)
inactive: saracatinib 0.281 | sotrastaurin 0.244 | alvocidib 0.105 | Tubastatin A -0.12 | [1] 0.091 | defactinib -0.084 | rucaparib -0.201 | [2] 0.022 | encorafenib -0.058 | [3] 0.126

C19orf25 (UniProt Q9UFG5)
inactive: saracatinib -0.048 | sotrastaurin 0.023 | alvocidib 0.022 | Tubastatin A 0.286 | [1] -0.032 | defactinib -0.225 | rucaparib 0.083 | [2] 0.024 | encorafenib -0.029 | [3] -0.27

CAPZB isoform 2 (UniProt P47756)
inactive: saracatinib 0.067 | sotrastaurin -0.013 | alvocidib 0.039 | Tubastatin A -0.036 | [1] 0.035 | defactinib 0.02 | rucaparib -0.086 | [2] -0.063 | encorafenib 0.028 | [3] 0.101

CALU isoform 3 (UniProt O43852)
inactive: saracatinib 0.064 | sotrastaurin 0.045 | alvocidib 0.011 | Tubastatin A -0.019 | [1] -0.015 | defactinib 0.009 | rucaparib -0.1 | [2] -0.045 | encorafenib -0.017 | [3] 0.034

C3orf33 (UniProt Q6P1S2)
inactive: saracatinib 0.006 | sotrastaurin 0.051 | alvocidib -0.004 | Tubastatin A 0.022 | [1] 0.001 | defactinib 0.005 | rucaparib -0.047 | [2] 0.004 | encorafenib 0.092 | [3] -0.064

CANX isoform 2 (UniProt P27824)
inactive: saracatinib -0.067 | sotrastaurin -0.057 | alvocidib 0.067 | Tubastatin A -0.018 | [1] 0.021 | defactinib 0.076 | rucaparib 0.003 | [2] -0.002 | encorafenib 0.064 | [3] 0.04

C12orf29 (UniProt Q8N999)
inactive: saracatinib -0.014 | sotrastaurin 0.021 | alvocidib 0.049 | Tubastatin A -0.102 | [1] 0.014 | defactinib -0.007 | rucaparib -0.026 | [2] -0.057 | encorafenib -0.002 | [3] 0.054

C18orf25 (UniProt Q96B23)
inactive: saracatinib 0.003 | sotrastaurin 0.091 | alvocidib -0.03 | Tubastatin A -0.009 | [1] -0.06 | defactinib -0.025 | rucaparib -0.032 | [2] -0.078 | encorafenib -0.067 | [3] 0.097

C1orf50 (UniProt Q9BV19)
inactive: saracatinib -0.073 | sotrastaurin 0.037 | alvocidib -0.149 | Tubastatin A 0.105 | [1] -0.251 | defactinib -0.18 | rucaparib -0.016 | [2] -0.075 | encorafenib -0.011 | [3] 0.031

CAMLG (UniProt P49069)
inactive: saracatinib 0.017 | sotrastaurin -0.006 | alvocidib -0.015 | Tubastatin A -0.003 | [1] -0.062 | defactinib 0 | rucaparib 0.029 | [2] -0.029 | encorafenib 0.113 | [3] 0.018

C2CD5 isoform 4 (UniProt Q86YS7)
inactive: saracatinib -0.028 | sotrastaurin 0.004 | alvocidib 0.049 | Tubastatin A 0.057 | [1] -0.081 | defactinib 0.026 | rucaparib -0.061 | [2] -0.057 | encorafenib 0.001 | [3] 0.03

CAPRIN1 (UniProt Q14444)
inactive: saracatinib 0.023 | sotrastaurin 0.047 | alvocidib 0.243 | Tubastatin A 0.035 | [1] 0.058 | defactinib 0.122 | rucaparib 0.12 | [2] -0.022 | encorafenib 0.009 | [3] 0.003

Quoted from the results shown (2 entries):
CAMLG (UniProt P49069)
inactive: saracatinib 0.017 | sotrastaurin -0.006 | alvocidib -0.015 | Tubastatin A -0.003 | [1] -0.062 | defactinib 0 | rucaparib 0.029 | [2] -0.029 | encorafenib 0.113 | [3] 0.018

C2CD5 isoform 4 (UniProt Q86YS7)
inactive: saracatinib -0.028 | sotrastaurin 0.004 | alvocidib 0.049 | Tubastatin A 0.057 | [1] -0.081 | defactinib 0.026 | rucaparib -0.061 | [2] -0.057 | encorafenib 0.001 | [3] 0.03

Later entries:

CAPNS1 (UniProt P04632)
inactive: saracatinib 0.046 | sotrastaurin 0.057 | alvocidib -0.031 | Tubastatin A -0.022 | [1] 0.014 | defactinib 0.02 | rucaparib -0.06 | [2] 0.003 | encorafenib -0.008 | [3] 0.035

C18orf25 isoform 2 (UniProt Q96B23)
inactive: saracatinib 0.133 | sotrastaurin -0.047 | alvocidib -0.037 | Tubastatin A -0.01 | [1] -0.091 | defactinib -0.03 | rucaparib -0.092 | [2] -0.087 | encorafenib 0.02 | [3] 0.016

C11orf54 (UniProt Q9H0W9)
inactive: saracatinib 0.039 | sotrastaurin 0.03 | alvocidib -0.081 | Tubastatin A 0.053 | [1] -0.009 | defactinib 0.047 | rucaparib -0.031 | [2] 0.036 | encorafenib 0.006 | [3] -0.006

C1orf109 (UniProt Q9NX04)
inactive: saracatinib 0.02 | sotrastaurin -0.014 | alvocidib 0.01 | Tubastatin A -0.091 | [1] 0.011 | defactinib 0.086 | rucaparib 0.07 | [2] -0.031 | encorafenib 0 | [3] 0.076

CANT1 (UniProt Q8WVQ1)
inactive: saracatinib 0.02 | sotrastaurin 0.004 | alvocidib -0.053 | Tubastatin A -0.009 | [1] 0.012 | defactinib 0.001 | rucaparib -0.032 | [2] -0.046 | encorafenib -0.066 | [3] -0.029

C3orf38 (UniProt Q5JPI3)
inactive: saracatinib 0.115 | sotrastaurin 0.105 | alvocidib 0.005 | Tubastatin A -0.225 | defactinib -0.208 | rucaparib -0.234 | [2] -0.015 | encorafenib -0.03 | [3] -0.159

C2orf69 (UniProt Q8N8R5)
inactive: saracatinib 0.039 | sotrastaurin 0 | alvocidib -0.067 | Tubastatin A -0.017 | [1] -0.035 | defactinib -0.003 | rucaparib -0.094 | [2] -0.142 | encorafenib 0.05 | [3] 0.057

C5orf22 (UniProt Q49AR2)
inactive: saracatinib 0.001 | sotrastaurin 0.013 | alvocidib -0.026 | Tubastatin A -0.091 | [1] -0.033 | defactinib 0.014 | rucaparib -0.003 | [2] 0.02 | encorafenib -0.024 | [3] 0.012

CAPN7 (UniProt Q9Y6W3)
inactive: saracatinib 0.001 | sotrastaurin -0.109 | alvocidib -0.073 | Tubastatin A 0.029 | [1] 0.005 | defactinib -0.064 | rucaparib -0.021 | [2] 0.011 | encorafenib 0.037 | [3] -0.004

C20orf27 isoform 2 (UniProt Q9GZN8)
inactive: saracatinib -0.065 | sotrastaurin -0.033 | alvocidib 0.01 | Tubastatin A 0 | [1] -0.028 | defactinib -0.016 | rucaparib 0.004 | [2] 0.006 | encorafenib -0.021 | [3] -0.093

C1orf131 isoform 5 (UniProt Q8NDD1)
inactive: saracatinib -0.053 | sotrastaurin 0.017 | alvocidib 0.239 | Tubastatin A 0.072 | [1] -0.013 | defactinib 0.174 | rucaparib 0.27 | [2] 0.066 | encorafenib 0.158 | [3] 0.095

BTK isoform 2 (UniProt Q06187)
inactive: saracatinib -0.175 | sotrastaurin -0.178 | alvocidib 0.106 | Tubastatin A 0.203 | [1] 0.27 | defactinib 0.142 | [2] 0.26 | [3] -0.126

BUB1 (UniProt O43683)
inactive: saracatinib -0.076 | sotrastaurin 0.067 | alvocidib 0.075 | Tubastatin A -0.009 | [1] -0.094 | defactinib 0.01 | rucaparib -0.287 | [2] -0.034 | encorafenib -0.078 | [3] 0.038

CAB39 (UniProt Q9Y376)
inactive: saracatinib 0.028 | sotrastaurin 0.049 | alvocidib -0.018 | Tubastatin A -0.005 | [1] -0.01 | defactinib -0.001 | rucaparib -0.052 | [2] -0.012 | encorafenib 0.006 | [3] 0.03

C7 (UniProt P10643)
inactive: saracatinib 0.166 | sotrastaurin 0.027 | alvocidib -0.122 | Tubastatin A -0.515 | [1] 0.06 | defactinib -0.024 | rucaparib -0.346 | [2] -0.063 | encorafenib 0.057 | [3] 0.275

C8orf76 (UniProt Q96K31)
inactive: saracatinib 0.053 | sotrastaurin 0.125 | alvocidib -0.028 | Tubastatin A -0.098 | [1] 0.023 | defactinib -0.131 | rucaparib 0.031 | [2] -0.123 | encorafenib -0.052 | [3] 0.022

C1orf174 (UniProt Q8IYL3)
inactive: saracatinib 0 | sotrastaurin 0.102 | alvocidib 0.296 | Tubastatin A -0.017 | [1] 0.001 | defactinib -0.007 | rucaparib -0.069 | [2] -0.068 | encorafenib -0.053 | [3] 0.075
